Source: PubChem BioAssay AID1159506 (NCATS, 2015).

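Genome-wide siRNA knockdown in TC32 Ewing sarcoma cells, comparing luciferase light from an NR0B1-promoter reporter with a CMV-promoter reporter 48 hours after transfection.
Each siRNA was applied at 20 nM.
A z-score of the log NR0B1-over-CMV signal, less the median of siRNAs with the same seed; more negative means a stronger specific loss of the NR0B1 reporter.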

This is part of the screen; most of the strongest results are not listed here.
Sequences are the guide (antisense) strand, without overhang.

| siRNA | gene | seed-corrected z-score |
|---|---|---|
| `UCGUGUGAAAUAUAUGACC` | ADAMTS18 | -0.4606 |
| `UUAAAAUCUUGAGGGAUUG` | PSMA7 | 1.379 |
| `UGGGAUGCCGUCAAACACC` | RPL13A | -0.1672 |
| `UUCUCGAUUAUACCGCUUC` | GDPD1 | -0.7414 |
| `GAUGAAGAGACUUGGAUGA` | PRR21 | 0.6043 |
| `AUCCGUAUCGCUCACUCUG` | RNF122 | 0.01462 |
| `UCAUCCUUCAGGUUGUAUC` | PPP2R2C | 0.3459 |
| `UACAGGUUGAGAAGAAGCC` | DAB2 | -1.241 |
| `UUUAUUUCAGGGAGAGGGC` | RPL36 | -0.3339 |
| `UAGUGUAUUGUCGGUAUUC` | VDAC1 | -0.4907 |
| `UUCUGAACCCUCUAUGGGC` | CCNT1 | 0.01802 |
| `UGCGUAUGGAGUGUAACUG` | RTCA | -0.572 |
| `UGAUAUACAGCUCUAGAUC` | FOCAD | 0.2777 |
| `UUCGUGGACAAAGCUAGGG` | NOP9 | 1.009 |
| `CAGUUUAUCAGCAUGGUCA` | IFNA1 | 1.182 |
| `AACGGUUGAGGUUACGGCC` | SNX33 | -0.3152 |
| `UUUUAAUCUACCUAGAACC` | CUL2 | 0.7876 |
| `UCCGGAACAAAAUAAUAGC` | IGSF5 | 0.05675 |
| `UGCAUUAUCGCUGAGGUCC` | RTN4R | -0.1719 |
| `UUGCAGACCUUGACGAUGU` | ZBTB42 | -0.2242 |
| `UUUCGAGAAUGUUAUCACC` | FEM1B | -0.04478 |
| `AUAUAUUGCAGCAUAAGUG` | TRIM49 | 0.6319 |
| `AAUAGCUUCAUAGAGGUCC` | SMIM8 | -0.4095 |
| `AACAGAAGCAGUACGCUGG` | CNR1 | 0.6751 |
| `UUUGGUGAAGUUGUGGUAG` | PRSS50 | -0.2381 |
| `UCAGAAGCCAUCUUUUCCG` | LOC389033 | -0.5841 |
| `AUAGAGUAUAGGAUUCAGC` | OR13C3 | 0.5163 |
| `UUAGCAUCUUCUAUAGGUC` | EOGT | -0.6398 |
| `UCCCAUACAACUCUAACGC` | SMCO1 | 0.9992 |
| `UACUUUUUCUGGUAACUUG` | RNF141 | -0.04934 |
| `UUCAUGCCCAGGUCGGUCU` | SARM1 | -0.1881 |
| `UACGGUGUCAGGCUUGGUG` | EPHX1 | -0.8888 |
| `UCAGUCACUACAAAGGUGC` | OR5D16 | 0.02344 |
| `UCAGUGGAAAACCUAAACC` | TSGA13 | 0.497 |
| `UUCCUGCACAUAGGGCUGC` | STEAP3 | -0.5227 |
| `AUUGAGAUGAGUUGUGAGC` | C11orf80 | 1.119 |
| `UCUUUUUCAGGAGAGAUGC` | OSTF1 | 0.7023 |
| `UUGGUUUCACUGUGCACUG` | ADAM11 | -0.9851 |
| `UAAUUUUAAACUCCCGUCC` | APIP | 0.01159 |
| `UCACUGUCAACUUUUAUCU` | ATRX | -1.503 |
| `UUGUGGAUCAUAAAUUCGG` | TEX10 | -0.2691 |
| `UUCCUUCCCAGACCUCAGC` | LRRN4CL | -1.399 |
| `UAUACUAUCAUUGAGAGAG` | SLC35G2 | -0.3343 |
| `UCUUGUUCUGACAUCUUUG` | PSG4 | 0.9888 |
| `UAAUGCUGAUCAACGAUCC` | MAPK4 | 0.1586 |
| `UGGAAUUAAAGUUACUGUC` | IDH3A | 0.2497 |
| `UCCAUACUCAAUAUACUCC` | CNOT1 | 2.271 |
| `UAGCAUUUAAGUCAGACAC` | CEP44 | 0.008427 |
| `UUCGAAUACAACAUACUCC` | MRPL45 | -0.7584 |
| `UCUUCGUCAUUGUCGGUAC` | NNAT | -1.058 |
| `AAAGGUACGACCAAUAGCC` | CPS1 | 0.04731 |
| `UCUCGAUUAAUAUAAAGGG` | AIG1 | 0.4299 |
| `UUCACCUCCACAGCUUCGG` | HTR5A | 0.007656 |
| `UGUUGUACCGCUUGAAGCC` | FAM213B | -0.7677 |
| `UAGCAGUUUGUUGAGCUCC` | HIST1H2AC | 0.2238 |
| `UAGGCUUCCAUUGCGUGUC` | ZDHHC5 | -0.02634 |
| `AAUCUUCCCAUGUCAGUUC` | DUOX1 | -0.951 |
| `UUAGGCUCAAUGAUAUCAC` | PPARD | 0.3363 |
| `GCCCUUAGAGCUGCUUUCC` | LOC402269 | -0.1888 |
| `AUUUUCAUCAUUAAUGGAG` | DCAF8 | 0.777 |
| `UUCCGGAAGAGAAAGGUCA` | PXMP4 | 0.5965 |
| `ACUGAAAUCUCGCAGUUCC` | VGF | 1.2 |
| `UAGGCUUCUUGUGAGAUCG` | TBCB | -0.1011 |
| `UACAGGUCAUGGGUAGAUC` | DSPA2D | -0.8063 |
| `UACAGUCCAAAACAAAUCU` | PAFAH1B2 | -0.2289 |
| `AAAACACCGAUGACUAUGG` | PGM5P4 | 0.007216 |
| `UUCGAGAUUUGUGCGACGG` | IDH3G | 0.2467 |
| `UUUUCUAGAUACUUCAGCC` | C5orf45 | 0.5904 |
| `UGUUGUACGGUGCAAAGGC` | DTX2 | -0.4713 |
| `UGCACAGACACGUUAAAGC` | SLC25A5 | 0.04361 |
| `ACCUGUUAAACCGCGUUUC` | PAK1IP1 | -0.1677 |
| `UUCGGCUUCACAGUGACCU` | DEFB107A | 0.5953 |
| `UUCCUCACAAGUGCUGUGA` | SMPD1 | -0.233 |
| `UAAGAGCACCCGAGUAAGC` | ZDHHC16 | -0.1527 |
| `ACCUCAGUCACAUUAAUCC` | IL11RA | 0.2061 |
| `UCGUAGACGUGGGUCAUGC` | ZNRF4 | -0.2965 |
| `AUUUGUUCCUGAGUGAUUG` | CHMP6 | 0.4983 |

7 of the entries, repeated:

siRNA	gene	seed-corrected z-score
UCGUAGACGUGGGUCAUGC	ZNRF4	-0.2965
UCCAUACUCAAUAUACUCC	CNOT1	2.271
UUAGCAUCUUCUAUAGGUC	EOGT	-0.6398
AUCCGUAUCGCUCACUCUG	RNF122	0.01462
UUUGGUGAAGUUGUGGUAG	PRSS50	-0.2381
UGCACAGACACGUUAAAGC	SLC25A5	0.04361
UUGGUUUCACUGUGCACUG	ADAM11	-0.9851